Measurements: patent publication US20230257436A1 (published 2023)
These are yes or no findings as the source states them, for the method shown. Some binding calls cover weakened binding; strength is not graded here.

By UniProt entry, the sequences of proteins in these tests, tags left out. Residues count along the entry.
UniProt P28799, residues 18-593: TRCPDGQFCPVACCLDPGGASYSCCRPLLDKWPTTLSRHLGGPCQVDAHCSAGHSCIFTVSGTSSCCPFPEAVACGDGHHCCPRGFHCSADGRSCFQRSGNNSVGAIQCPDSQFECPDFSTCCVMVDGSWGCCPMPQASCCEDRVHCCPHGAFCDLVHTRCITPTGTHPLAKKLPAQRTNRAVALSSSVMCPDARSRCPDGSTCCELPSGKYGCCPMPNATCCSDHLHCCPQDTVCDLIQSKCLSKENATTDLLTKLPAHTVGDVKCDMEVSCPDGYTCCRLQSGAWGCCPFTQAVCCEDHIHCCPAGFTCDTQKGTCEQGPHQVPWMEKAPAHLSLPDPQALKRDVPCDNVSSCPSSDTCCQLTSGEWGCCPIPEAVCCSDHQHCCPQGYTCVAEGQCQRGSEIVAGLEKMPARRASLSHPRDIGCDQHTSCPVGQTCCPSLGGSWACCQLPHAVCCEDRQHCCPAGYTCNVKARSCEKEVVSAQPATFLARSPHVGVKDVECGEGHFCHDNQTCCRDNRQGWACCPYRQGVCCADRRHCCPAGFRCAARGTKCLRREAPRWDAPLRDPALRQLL

Legend:
[1] = target: T1, commercially available recombinant PSAP (Abnova) (UniProt P07602); test: PSAP/PGRN complex sandwich ELISA (anti-PSAP capture, anti-PGRN detection)
T1 sequence (looked up): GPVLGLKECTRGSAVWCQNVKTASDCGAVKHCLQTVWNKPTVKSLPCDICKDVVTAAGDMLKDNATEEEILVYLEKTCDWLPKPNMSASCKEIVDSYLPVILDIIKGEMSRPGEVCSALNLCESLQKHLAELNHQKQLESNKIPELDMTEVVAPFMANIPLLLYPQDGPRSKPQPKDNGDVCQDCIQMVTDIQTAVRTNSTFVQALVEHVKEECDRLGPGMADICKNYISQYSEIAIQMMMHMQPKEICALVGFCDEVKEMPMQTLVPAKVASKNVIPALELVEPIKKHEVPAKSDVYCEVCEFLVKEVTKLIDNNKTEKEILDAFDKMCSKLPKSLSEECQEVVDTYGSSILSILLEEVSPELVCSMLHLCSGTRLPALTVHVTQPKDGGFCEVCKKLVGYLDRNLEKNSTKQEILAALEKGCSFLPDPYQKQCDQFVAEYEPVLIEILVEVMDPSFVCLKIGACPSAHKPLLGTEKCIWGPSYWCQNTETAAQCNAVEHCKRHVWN

[2] = target: T1, commercially available recombinant PSAP (Abnova); test: sandwich ELISA, capture of PGRN or of PSAP first, detection of the other
[3] = target: T1, commercially available recombinant PSAP (Abnova); test: PGRN/PSAP complex sandwich ELISA (anti-PGRN capture, anti-PSAP detection)
[4] = target: T2, endogenous human prosaposin (PSAP), as expressed by non-PSAP-transfected ARPE-19 derived cells and as present in human plasma and CSF (human) (UniProt P07602); test: PGRN/PSAP and PSAP/PGRN sandwich ELISA on conditioned media
T2 sequence (looked up): T1 sequence (looked up)

Substance	binding [1]	binding [2]	binding [3]	binding [4]
commercially available recombinant PGRN (R&D Systems; PGRN-His, cat no. 2420-PG) (from UniProt P28799 18-593) (ligand)	binds	binds	binds	
FLAG-PGRN secreted from FLAG-PGRN transfected cells (from UniProt P28799 18-593) (ligand)				binds
